Reference: patent US20170158763A1
Residue numbers refer to the chain shown, from its start. These are yes or no findings as the source states them, for the method shown. Some binding calls cover weakened binding; strength is not graded here.

Chains of the proteins cited; added tags and fusions are not shown. Lines headed by an entry give the natural chain unless they say otherwise; changes in a name come on top.
UniProt P43630: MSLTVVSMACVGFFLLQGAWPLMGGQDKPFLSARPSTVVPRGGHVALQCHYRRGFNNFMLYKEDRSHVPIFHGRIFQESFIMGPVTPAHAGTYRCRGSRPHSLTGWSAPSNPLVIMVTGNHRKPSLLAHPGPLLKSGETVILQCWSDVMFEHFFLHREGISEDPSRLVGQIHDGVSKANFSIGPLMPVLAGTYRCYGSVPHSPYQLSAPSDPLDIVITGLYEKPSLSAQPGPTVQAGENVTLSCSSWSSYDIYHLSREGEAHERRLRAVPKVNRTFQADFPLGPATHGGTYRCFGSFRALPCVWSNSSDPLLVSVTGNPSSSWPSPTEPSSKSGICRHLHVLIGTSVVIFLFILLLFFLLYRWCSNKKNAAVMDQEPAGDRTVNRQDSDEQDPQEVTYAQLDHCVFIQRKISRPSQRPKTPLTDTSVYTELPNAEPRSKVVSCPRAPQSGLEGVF

B1: 10G5-H3L2 (antibody, human IgG1, V domains shown)
VH: QVQLVQSGAEVKKPGASVKVSCKASGYTFTSYTMHWVRQAPGQGLEWIGYINPSSGYTENNRKFKDKTTMTADTSTSTAYMELSSLRSEDTAVYYCARLGKGLLPPFDYWGQGTTVTVSS
VL: DIQMTQSPSSLSASVGDRVTITCRASENIYSNLAWYQQKPGKAPQLLVYAATNLADGVPSRFSGSGSGTDYTLTISSLQPEDFATYYCQHFWGTPYTFGGGTKLEIK
B2: 10G5-H5L3 (antibody, human IgG1, V domains shown)
VH: B1 VH with V11L, K12A, K13R, M70L, T74K
VL: B1 VL with D70Q
B3: 2B12-H4L1 (antibody, human IgG1, V domains shown)
VH: QIQLVQSGSELKKPGASVKVSCKASGYTFTTAGMQWVQKTPGKGLEWIGWINSHSGVPKYAEDFKGRFAFSLDTSASTAYLQISSLKAEDTAVYFCARGGDEGVMDYWGQGTSVTVSS
VL: DIQMTQSPSFLSASVGDRVTITCKASQDVSTAVAWYQQKPGQPPKLLIYWTSTRHTGVPDRFSGSGSGTDYTLTISSLQAEDVAVYYCQQHYSTPWTFGGGTKVEIK
B4: 2B12-H4L2 (antibody, human IgG1, V domains shown)
VH: B3 VH
VL: B3 VL with Q3V, L78V
B5: 2B12-H4L3 (antibody, human IgG1, V domains shown)
VH: B3 VH
VL: B3 VL with Q3V, I21F, P43S, L78V
B6: 2B12-H4L4 (antibody, human IgG1, V domains shown)
VH: B3 VH
VL: B3 VL with Q3V, P8H, S9K, I21F, P43S, L78V, V104L
B7: 10G5-H5L4 (antibody, human IgG1, V domains shown)
VH: B1 VH with V11L, K12A, K13R, M70L, T74K
VL: B1 VL with P40Q, D70Q, S76N
B8: 10G5-H5L5 (antibody, human IgG1, V domains shown)
VH: B1 VH with V11L, K12A, K13R, M70L, T74K
VL: B1 VL with D17E, R18T, P40Q, D70Q, S76N
B9: 10G5-H6L2 (antibody, human IgG1, V domains shown)
VH: B1 VH with V5Q, V20M, R38K, A40R, M70L, T74K, V116L
VL: B1 VL
B10: 10G5-H6L3 (antibody, human IgG1, V domains shown)
VH: B1 VH with V5Q, V20M, R38K, A40R, M70L, T74K, V116L
VL: B1 VL with D70Q
B11: 10G5-H6L4 (antibody, human IgG1, V domains shown)
VH: B1 VH with V5Q, V20M, R38K, A40R, M70L, T74K, V116L
VL: B1 VL with P40Q, D70Q, S76N
B12: 10G5-H6L5 (antibody, human IgG1, V domains shown)
VH: B1 VH with V5Q, V20M, R38K, A40R, M70L, T74K, V116L
VL: B1 VL with D17E, R18T, P40Q, D70Q, S76N
B13: 2B12-H1L1 (antibody, human IgG1, V domains shown)
VH: B3 VH with I2V, T40S, K43Q, I48M, A69V, A76V, S113T
VL: B3 VL
B14: 2B12-H1L2 (antibody, human IgG1, V domains shown)
VH: B3 VH with I2V, T40S, K43Q, I48M, A69V, A76V, S113T
VL: B3 VL with Q3V, L78V
B15: 2B12-H1L3 (antibody, human IgG1, V domains shown)
VH: B3 VH with I2V, T40S, K43Q, I48M, A69V, A76V, S113T
VL: B3 VL with Q3V, I21F, P43S, L78V
B16: 10G5-H3L3 (antibody, human IgG1, V domains shown)
VH: B1 VH
VL: B1 VL with D70Q
B17: 2B12-H1L4 (antibody, human IgG1, V domains shown)
VH: B3 VH with I2V, T40S, K43Q, I48M, A69V, A76V, S113T
VL: B3 VL with Q3V, P8H, S9K, I21F, P43S, L78V, V104L
B18: 2B12-H2L1 (antibody, human IgG1, V domains shown)
VH: B3 VH with Q38R, K39Q, T40A, K43Q, A69V, A76V, S113T
VL: B3 VL
B19: 2B12-H2L2 (antibody, human IgG1, V domains shown)
VH: B3 VH with Q38R, K39Q, T40A, K43Q, A69V, A76V, S113T
VL: B3 VL with Q3V, L78V
B20: 2B12-H2L3 (antibody, human IgG1, V domains shown)
VH: B3 VH with Q38R, K39Q, T40A, K43Q, A69V, A76V, S113T
VL: B3 VL with Q3V, I21F, P43S, L78V
B21: 2B12-H2L4 (antibody, human IgG1, V domains shown)
VH: B3 VH with Q38R, K39Q, T40A, K43Q, A69V, A76V, S113T
VL: B3 VL with Q3V, P8H, S9K, I21F, P43S, L78V, V104L
B22: 2B12-H3L1 (antibody, human IgG1, V domains shown)
VH: B3 VH with T40S, K43Q, A76V, S113T
VL: B3 VL
B23: 2B12-H3L2 (antibody, human IgG1, V domains shown)
VH: B3 VH with T40S, K43Q, A76V, S113T
VL: B3 VL with Q3V, L78V
B24: 2B12-H3L3 (antibody, human IgG1, V domains shown)
VH: B3 VH with T40S, K43Q, A76V, S113T
VL: B3 VL with Q3V, I21F, P43S, L78V
B25: 2B12-H3L4 (antibody, human IgG1, V domains shown)
VH: B3 VH with T40S, K43Q, A76V, S113T
VL: B3 VL with Q3V, P8H, S9K, I21F, P43S, L78V, V104L
B26: 10G5-H3L4 (antibody, human IgG1, V domains shown)
VH: B1 VH
VL: B1 VL with P40Q, D70Q, S76N
B27: 10G5-H3L5 (antibody, human IgG1, V domains shown)
VH: B1 VH
VL: B1 VL with D17E, R18T, P40Q, D70Q, S76N
B28: 10G5-H4L2 (antibody, human IgG1, V domains shown)
VH: B1 VH with V5Q, V20M, M70L, V116L
VL: B1 VL
B29: 10G5-H4L3 (antibody, human IgG1, V domains shown)
VH: B1 VH with V5Q, V20M, M70L, V116L
VL: B1 VL with D70Q
B30: 10G5-H4L4 (antibody, human IgG1, V domains shown)
VH: B1 VH with V5Q, V20M, M70L, V116L
VL: B1 VL with P40Q, D70Q, S76N
B31: 10G5-H4L5 (antibody, human IgG1, V domains shown)
VH: B1 VH with V5Q, V20M, M70L, V116L
VL: B1 VL with D17E, R18T, P40Q, D70Q, S76N
B32: 10G5-H5L2 (antibody, human IgG1, V domains shown)
VH: B1 VH with V11L, K12A, K13R, M70L, T74K
VL: B1 VL
B33: 2B12-H/L Parental (parental chimeric 2B12) (antibody, V domains shown)
VH: B3 VH with S9P, A16E, S17T, K19R, V20I, E46K, D73E, S85T, A88N, V93T
VL: DIVMTQSHKFMSTSLGDRVSFTCKASQDVSTAVAWYQQKPGQSPKLLIYWTSTRHTGVPDRFTGSGSGTDYTLTISSVQAEDLALYYCQQHYSTPWTFGGGTKLEIK

target: KIR3DL2 (as expressed on RAJI-KIR3DL2 cells) (human) (UniProt P43630); test: flow cytometry titration on RAJI-KIR3DL2 cells, goat anti-human-PE detection

binding, binds:
B1, B2, B3, B4, B5, B6, B7, B8, B9, B10, B11, B12, B13, B14, B15, B16, B17, B18, B19, B20, B21, B22, B23, B24, B25, B26, B27, B28, B29, B30, B31, B32, B33

target: KIR3DL2 (as expressed on RAJI-KIR3DL2 cells) (human) (UniProt P43630); test: binding assay of Example 1 at two mAb concentrations, compared with chimeric 10G5

binding, binds:
B1, B2, B7, B8, B9, B10, B11, B12, B16, B26, B27, B28, B29, B30, B31, B32

target: KIR3DL2 (as expressed on RAJI-KIR3DL2 cells) (human) (UniProt P43630); test: binding assay of Example 1 at two mAb concentrations, compared with chimeric 2B12

binding, binds:
B3, B4, B5, B6, B13, B14, B15, B17, B18, B19, B20, B21, B22, B23, B24, B25
